The results in this text go back to paper doi:10.1101/2020.02.21.960088.

Chains of the proteins cited; added tags and fusions are not shown. Lines headed by an entry give the natural chain unless they say otherwise; changes in a name come on top.
UniProt O00487: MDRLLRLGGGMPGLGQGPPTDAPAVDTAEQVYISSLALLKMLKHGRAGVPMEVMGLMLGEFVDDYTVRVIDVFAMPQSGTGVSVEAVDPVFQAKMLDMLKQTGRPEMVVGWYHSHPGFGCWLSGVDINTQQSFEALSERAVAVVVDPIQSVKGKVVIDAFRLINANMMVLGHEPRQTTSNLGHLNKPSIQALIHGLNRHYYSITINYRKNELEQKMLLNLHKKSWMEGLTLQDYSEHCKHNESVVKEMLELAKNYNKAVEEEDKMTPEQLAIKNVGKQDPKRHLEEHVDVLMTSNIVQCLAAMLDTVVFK
UniProt Q16186: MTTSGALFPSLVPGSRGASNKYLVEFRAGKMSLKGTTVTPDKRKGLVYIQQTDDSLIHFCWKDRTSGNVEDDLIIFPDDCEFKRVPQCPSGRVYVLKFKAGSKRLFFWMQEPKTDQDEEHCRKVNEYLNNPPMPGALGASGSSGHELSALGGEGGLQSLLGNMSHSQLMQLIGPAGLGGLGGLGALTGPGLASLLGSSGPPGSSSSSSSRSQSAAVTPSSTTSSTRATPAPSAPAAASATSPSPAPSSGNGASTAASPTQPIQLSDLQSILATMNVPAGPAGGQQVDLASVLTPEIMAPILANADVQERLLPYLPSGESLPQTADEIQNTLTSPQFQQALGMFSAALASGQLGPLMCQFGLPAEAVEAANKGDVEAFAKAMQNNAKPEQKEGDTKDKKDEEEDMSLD
UniProt Q9Y5K5: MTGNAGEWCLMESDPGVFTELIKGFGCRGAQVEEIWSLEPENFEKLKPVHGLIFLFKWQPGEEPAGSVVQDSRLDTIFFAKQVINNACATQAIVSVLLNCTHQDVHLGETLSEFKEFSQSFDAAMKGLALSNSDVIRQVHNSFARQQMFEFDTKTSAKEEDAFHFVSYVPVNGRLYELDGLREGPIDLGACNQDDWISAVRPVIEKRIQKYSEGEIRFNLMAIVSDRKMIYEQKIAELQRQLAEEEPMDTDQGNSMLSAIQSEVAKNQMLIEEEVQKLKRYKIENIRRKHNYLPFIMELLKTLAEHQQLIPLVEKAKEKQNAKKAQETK

No constants are given. Whether binding was seen depends on the method and setting. Binding seen in cells or lysates may run through a third protein. Some binding calls cover weakened binding; strength is not graded here.

In experiment [1] the target is RPN11-HTBH (human) (UniProt O00487). The experiment in a line: pull-down.
For experiment [2] the target is unchanged. Put plainly: pull-down. This is another data set of the same source.
For experiment [3] the target is unchanged. Put plainly: pull-down + native gel or EMSA.

As to “RPN13 (endogenous) (from UniProt Q16186 1-407)”, the binding result in experiment [1] and in experiment [2] was “binds” throughout.
For the substance “UCH37 C88A•RPN13 complex (from UniProt Q9Y5K5;Q16186)”, the binding entry in experiment [3] was “binds”.
“UCH37•RPN13 complex (from UniProt Q9Y5K5;Q16186)”: the binding entry in experiment [3] was “binds”.
